Drawing on article PMC9301831, this text covers binding for one substance.

Amino acid sequences for entries named in this document (tags omitted).
UniProt P68400: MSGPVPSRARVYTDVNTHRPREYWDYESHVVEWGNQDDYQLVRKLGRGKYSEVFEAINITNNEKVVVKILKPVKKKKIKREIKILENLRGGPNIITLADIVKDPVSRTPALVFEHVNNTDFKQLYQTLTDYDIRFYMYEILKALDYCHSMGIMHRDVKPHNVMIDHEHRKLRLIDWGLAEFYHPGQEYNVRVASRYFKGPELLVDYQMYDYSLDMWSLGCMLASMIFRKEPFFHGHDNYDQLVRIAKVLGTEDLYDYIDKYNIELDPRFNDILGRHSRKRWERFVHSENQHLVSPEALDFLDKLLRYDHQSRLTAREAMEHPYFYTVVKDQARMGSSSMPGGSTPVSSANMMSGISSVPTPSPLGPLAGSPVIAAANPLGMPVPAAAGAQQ

The target in the assay is Casein Kinase 2 Alpha 1 (CKII) (human (endogenous in MHCC97H and HCCLM3)) (UniProt P68400). The experiment in a line: co-IP; endogenous proteins of HCC cells (MHCC97H and HCCLM3); protein A/G PLUS-Agarose; IgG group as negative control; SDS-PAGE and immunoblot.

Results are given in words; binding and its absence hold for the method and conditions named. In cells and extracts the contact can be indirect. Some binding calls cover weakened binding; strength is not graded here.

Turning to “NCAPG, non-SMC subunit in the concentrate I complex (from UniProt Q9BPX3 1-1015)”, the binding result is “binds”.
